Results taken from patent publication US9938331.
Results are given in words; binding and its absence hold for the method and conditions named. Some results given as binding are weak or reduced against the parent protein; the word gives no strength. Blank lines part the entries; values can stand above or below the binder they belong to.

The chains behind the UniProt entries cited, without tags or fusion partners. Where a name states a change or a piece, a line headed by the entry shows the natural chain unless it says otherwise. A line that says so, or that is headed by a name, gives the form on record, which may keep a tag or linker.
human VEGF (P15692, form named): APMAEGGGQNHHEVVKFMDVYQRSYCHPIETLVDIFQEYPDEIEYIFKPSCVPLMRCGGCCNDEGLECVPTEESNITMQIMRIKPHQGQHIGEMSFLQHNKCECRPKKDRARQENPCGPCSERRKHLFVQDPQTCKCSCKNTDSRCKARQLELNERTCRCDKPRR

Columns and labels:
human VEGF (human) = human VEGF (human) (UniProt P15692); assay: phage ELISA on coated antigen after panning of 1SS libraries
EpCAM [1] = biological target: T1, EpCAM (UniProt P16422); assay: affinity selection of phagemid libraries against EpCAM (EpCam 2)
T1 sequence (looked up): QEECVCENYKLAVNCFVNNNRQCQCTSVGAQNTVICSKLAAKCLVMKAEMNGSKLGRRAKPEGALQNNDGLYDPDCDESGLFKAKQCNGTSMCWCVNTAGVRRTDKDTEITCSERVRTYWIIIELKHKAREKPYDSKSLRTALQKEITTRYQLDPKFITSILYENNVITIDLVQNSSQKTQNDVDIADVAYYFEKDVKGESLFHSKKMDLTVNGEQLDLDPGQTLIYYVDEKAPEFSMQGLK

EpCAM [2] = biological target: T1, EpCAM; assay: phage ELISA on coated antigen after panning of 1SS libraries
EpCAM [3] = biological target: T1, EpCAM; assay: affinity selection of phage peptide libraries against EpCAM (EpCam 1)

Binder: PPFFVCSLGKCRDAHL [sNG0026S3.043]
binding (human VEGF (human)): binds

Binder: GTPRCNPFRQFCAIPS [sNG0026S3.032]
binding (human VEGF (human)): binds

Binder: RMVNCNPFNSWCSLPS [sNG0026S3.001]
binding (human VEGF (human)): binds

Binder: CSYNQVLGRAC [sNG0025S3.001]
binding (human VEGF (human)): binds

Binder: HGLTCYNQICWAPRP
binding (EpCAM [1]): binds

Binder: RGLKCSGHLCWVTPQ
binding (EpCAM [1]): binds

Binder: PGLRCLGTLCWVPNR
binding (EpCAM [1]): binds

Binder: HGLACYNQLCWVNPH
binding (EpCAM [1]): binds

Binder: LRCIGQICWR [sNG0017S3.022]
binding (EpCAM [3]): binds | binding (EpCAM [2]): binds

Binder: SSCSLFNNTRHWSCTD [sNG0026S3.008]
binding (human VEGF (human)): binds

Binder: LRCWGMLCYA [sNG0017S3.017]
binding (EpCAM [3]): binds | binding (EpCAM [2]): binds

Binder: LTCWGQVCFR [sNG0017S3.009]
binding (EpCAM [3]): binds | binding (EpCAM [2]): binds

Binder: NVHFWCHNHKCHDLVS [sNG0026S3.040]
binding (human VEGF (human)): binds

Binder: RPPACNLFLSWCSYDS [sNG0026S3.004]
binding (human VEGF (human)): binds

Binder: DMRFLCRHGKCHDLPL [sNG0026S3.034]
binding (human VEGF (human)): binds

Binder: PPQFQCVRGKCFDLTF [sNG0026S3.053]
binding (human VEGF (human)): binds

Binder: TSPACNPFRHFCTLPT [sNG0026S3.058]
binding (human VEGF (human)): binds

Binder: ASSCKDSPHFRCLFPL [sNG0026S3.055]
binding (human VEGF (human)): binds

Binder: RNLECLGNVCSLLNQ
binding (EpCAM [1]): binds

Binder: PHCRQHPLDRWMCSPS [sNG0026S3.057]
binding (human VEGF (human)): binds

Binder: RPGMACSGQLCWLNSP [sNG0018S3.015]
binding (EpCAM [3]): binds | binding (EpCAM [2]): binds

Binder: HSLTCYGQICWVSNI
binding (EpCAM [1]): binds

Binder: SFTCSLFPSPHCTTLR [sNG0026S3.054]
binding (human VEGF (human)): binds

Binder: PFACPHSSGFRCLYNI [sNG0026S3.005]
binding (human VEGF (human)): binds

Binder: LKCLYNICWV [sNG0017S3.024]
binding (EpCAM [3]): binds | binding (EpCAM [2]): binds

Binder: TPYFRCQFGFCFDSFS [sNG0026S3.045]
binding (human VEGF (human)): binds

Binder: GRSVCNPYKSWCPVRQ [sNG0026S3.011]
binding (human VEGF (human)): binds

Binder: LANCPNSPGFLCLHAV [sNG0026S3.024]
binding (human VEGF (human)): binds

Binder: SYICHNCLLS [sNG0017S3.021]
binding (EpCAM [2]): binds

Binder: SKPTCNVFNSWCSVPL [sNG0026S3.059]
binding (human VEGF (human)): binds

Binder: LRLCTYGGGKYDCSST [sNG0026S3.050]
binding (human VEGF (human)): binds

Binder: PSFFCSPLLGCRDSLS [sNG0026S3.052]
binding (human VEGF (human)): binds

Binder: ISTFFCSNGSCVDVPA [sNG0026S3.006]
binding (human VEGF (human)): binds

Binder: LFCWGNVCHF [sNG0017S3.006]
binding (EpCAM [3]): binds | binding (EpCAM [2]): binds

Binder: RWPVCNPFLGYCGIPN [sNG0026S3.056]
binding (human VEGF (human)): binds

Binder: RGLKCLGQLCWVSSN
binding (EpCAM [1]): binds

Binder: SLCSMFGDTPHWNCVP [sNG0026S3.007]
binding (human VEGF (human)): binds

Further lines, results first:

binding (EpCAM [2]): binds
Binder: RCPSRVPWCV [sNG0017S3.011]

binding (EpCAM [1]): binds
Binder: RGLACQGNICWRLNP

binding (human VEGF (human)): binds
Binder: SKHMCNPFHSWCGVPL [sNG0026S3.047]

binding (human VEGF (human)): binds
Binder: VHTFCNPFRQMCSLPM [sNG0026S3.027]

binding (human VEGF (human)): binds
Binder: GSYCQYRPFSSFCNRS [sNG0026S3.048]

binding (EpCAM [1]): binds
Binder: PALRCLGQLCWVTPT

binding (EpCAM [1]): binds
Binder: RNLTCWNTVCYAYPN

binding (EpCAM [2]): binds
Binder: QLVCGFSDSSRLCYMR [sNG0018S3.009]

binding (EpCAM [3]): binds | binding (EpCAM [2]): binds
Binder: PHNLACQNSICVRLPR [sNG0018S3.021]

binding (human VEGF (human)): binds
Binder: APFFSCSFGFCRDLQT [sNG0026S3.035]

binding (EpCAM [3]): binds | binding (EpCAM [2]): binds
Binder: PHALQCYGSLCWPSHL [sNG0018S3.018]

binding (human VEGF (human)): binds
Binder: PPHFRCFNGSCVDLSR [sNG0026S3.051]

binding (EpCAM [1]): binds
Binder: HGLTCHNTVCWVHHP

binding (human VEGF (human)): binds
Binder: WECTQHWCPS [sNG0025S3.021]

binding (EpCAM [1]): binds
Binder: RAITCLGTLCWPTSP

binding (EpCAM [2]): binds
Binder: LLCYITSPGNRLCSPY [sNG0018S3.022]

binding (EpCAM [3]): binds | binding (EpCAM [2]): binds
Binder: RPALKCIGTLCSLANP [sNG0018S3.014]

binding (human VEGF (human)): binds
Binder: LYFQCFPNRGCSTLQP [sNG0026S3.002]

binding (EpCAM [3]): binds | binding (EpCAM [2]): binds
Binder: PHGLWCHGSLCHYPLA [sNG0018S3.012]

binding (EpCAM [3]): binds | binding (EpCAM [2]): binds
Binder: RAGITCHGHLCWPITD [sNG0018S3.019]

binding (human VEGF (human)): binds
Binder: LCLPLGRWCP [sNG0025S3.016]

binding (human VEGF (human)): binds
Binder: LFFKCDVGHGCYDIKH [sNG0026S3.038]

binding (EpCAM [1]): binds
Binder: HTLECLGNICWVINQ

binding (human VEGF (human)): binds
Binder: NPFFYCVAGKCVDAPL [sNG0026S3.029]

binding (EpCAM [3]): binds | binding (EpCAM [2]): binds
Binder: PHGLTCTNQICFYGNT [sNG0018S3.006]

binding (EpCAM [3]): binds | binding (EpCAM [2]): binds
Binder: PHGLICAGSICFWPPP [sNG0018S3.007]

binding (human VEGF (human)): binds
Binder: QPPICNPFRQLCGIPL [sNG0026S3.046]

binding (EpCAM [3]): binds | binding (EpCAM [2]): binds
Binder: PRNLTCYGQICFQSQH [sNG0018S3.011]
